# Values from PubChem BioAssay AID504808 (Drosophila RNAi Screening Center, 2011).
# Screen: 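Chromatin factors that keep E2F targets switched off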 (primary screen)
# Cells: Drosophila S2 cells
# Reagents: long dsRNA against Drosophila genes
# Detection: 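Firefly luciferase driven by E2F sites, normalised to Renilla luciferase on the same minimal promoter, measured by plate reader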
# Direction: E2F firefly: higher = more E2F reporter activity; Renilla normaliser: higher = more normaliser reporter signal
# Active means: 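a knock-down counted as active when the firefly/Renilla E2F signal rose above 50%, a threshold chosen arbitrarily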
# The deposit covers about 21,000 reagents; below is an unselected part of those that have a named target and a result. Of all reagents, 18 (0.084%) got an active call. 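Raw counts without plate normalisation, one of two replicates; the ratio scores behind the calls were not deposited.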 Unmarked entries are inactive. A plus sign joins genes that one reagent is predicted to hit. Not given: the amount of reagent, the time to read-out.
Gene,dsRNA,"E2F firefly, rep 1","Renilla normaliser, rep 1"
Spn28F,DRSC03615,1.30e5,4697
CG9114,DRSC20155,1.43e5,4883
spidey,DRSC17932,1.01e5,5676
CG31735,DRSC01518,1.36e5,5629
CG17030,DRSC08503,97348,3700
CG6153,DRSC02935,76908,3357
CG3708,DRSC18646,1.38e5,7523
FucTA,DRSC10733,1.61e5,7993
nonA,DRSC20357,2.34e5,9442
hep,DRSC19839,73020,4855
hep,DRSC20337,62223,4611
CG2201,DRSC03721,78281,4456
CG17764,DRSC18135,85177,4766
MED8,DRSC06426,1.44e5,5058
lbk,DRSC07178,79566,3478
CG32188,DRSC09510,1.40e5,3790
CG5781,DRSC02893,1.19e5,4262
CG32669,DRSC18864,82044,2614
CG1636,DRSC18111,74883,3418
CG15034,DRSC17966,1.09e5,5123
Ldaf1,DRSC17963,1825,1040
nAChRbeta1,DRSC08097,1.36e5,4264
nAChRbeta1,DRSC08728,77707,3949
lace,DRSC03564,81898,3759
rasp,DRSC08191,90207,3843
Indy-2 + CG33934,DRSC15685,70532,3707
Indy-2 + CG33934,DRSC15686,1.42e5,7214
CG4860,DRSC15664,73863,3764
brk,DRSC18745,1.07e5,5745
Cf2,DRSC00744,1.10e5,136
tfc,DRSC07953,1.31e5,3730
tfc,DRSC07954,1.23e5,3853
tfc,DRSC08626,70132,3270
dpr1,DRSC05906,1.76e5,5611
dpr1,DRSC06399,1.06e5,4383
CG15194 (retired record),DRSC19642,67901,3745
CG15194 (retired record),DRSC19777,1.48e5,6820
CG6191,DRSC05938,3094,186
CG5084,DRSC06913,1.39e5,5129
rept,DRSC11388,1.42e5,6225
SNCF,DRSC10115,1.28e5,7647
ninaA,DRSC00830,78621,3809
RpS10a,DRSC14161,1809,892
Herc4,DRSC08631,81040,3706
Pde8,DRSC04503,80721,3491
comt,DRSC20319,90070,6782
CG32069 + Blos2,DRSC10621,68821,3480
YME1L,DRSC04378,78115,3956
mei-41,DRSC20350,2.83e5,8108
Peritrophin-A,DRSC20570,1.64e5,6160
CG1979,DRSC12495,74226,3585
Reg-5,DRSC04647,93448,3663
ORMDL,DRSC11737,1.31e5,6400
ect,DRSC10675,1.00e5,5806
ect,DRSC11343,1.24e5,5251
Ir94a,DRSC13538,92352,2437
mRpL28,DRSC02724,1.38e5,5022
Tnpo-SR,DRSC00546,1.01e5,3436
Hsp70Bb + Hsp70Bbb,DRSC15885,1.46e5,7159
CG14160,DRSC10161,1.25e5,6278
CG33500,DRSC09115,1.05e5,4950
Mfe2,DRSC19869,8006,788
trx,DRSC17089,69288,3192
Prp6,DRSC10724,70285,3431
CG13023,DRSC09454,1.21e5,3966
CG13023,DRSC09903,1.53e5,8003
clu,DRSC07181,61371,3272
CG30054,DRSC05354,1.44e5,5304
Magi,DRSC04247,80397,2979
Magi,DRSC04451,87782,3767
CG5177,DRSC02824,80603,3431
Gr98d,DRSC14571,1.11e5,6347
IntS9,DRSC10493,63959,3128
comm2,DRSC09881,1.67e5,7852
comm2,DRSC10877,1.89e5,8738
Trpml + CG42638,DRSC11032,79184,3628
Klp31E,DRSC03354,86269,3807
CG30122,DRSC06776,66334,3591
CG30122,DRSC06935,1.60e5,5270
Nnk,DRSC15274,1.36e5,7746
Pep,DRSC11252,59059,2957
Taf10b + Taf10,DRSC00793,1.53e5,5819
CG3699,DRSC18171,1.10e5,5162
CG3699,DRSC18642,1.22e5,5508

Reprinted from above, 6 entries:
Gene,dsRNA,"E2F firefly, rep 1","Renilla normaliser, rep 1"
MED8,DRSC06426,1.44e5,5058
lbk,DRSC07178,79566,3478
CG32188,DRSC09510,1.40e5,3790
CG5781,DRSC02893,1.19e5,4262
CG32669,DRSC18864,82044,2614
CG1636,DRSC18111,74883,3418
